The data set deals with Lactobacillus plantarum. The data set can be described thus: Phase 1: neutraliser validation using Lactobacillus plantarum. The data set is classed as cell-based. The settings on record: for Efficacy: neutralisation of the test agent; for Toxicity: toxicity to L. plantarum.

On to Zinc gluconate, for which the Efficacy result is, setting by setting: (neutraliser DE-N) “Yes”; (neutraliser Quench) “No”. Besides, the Toxicity entry (neutraliser DE-N) was “No” and the Toxicity entry (neutraliser Quench) is on record as “No”.
Copper gluconate: where the note is “neutraliser DE-N”, the Efficacy result is “Yes” and the Toxicity entry is listed as “No”. Also, where the note is “neutraliser Quench”, the Efficacy result is listed as “No” and the Toxicity entry is “No”.

For the origin of these results see US20230218666A1, “ANTIMICROBIAL COMBINATIONS” (MARVELBIOTICS LIMITED, priority 2020, published 2023).
